In publication PMC10691036:
These are yes or no findings as the source states them, for the method shown. Binding seen in cells or lysates may run through a third protein.

By UniProt entry, the sequences of proteins in these tests, tags left out.
UniProt Q96DH6: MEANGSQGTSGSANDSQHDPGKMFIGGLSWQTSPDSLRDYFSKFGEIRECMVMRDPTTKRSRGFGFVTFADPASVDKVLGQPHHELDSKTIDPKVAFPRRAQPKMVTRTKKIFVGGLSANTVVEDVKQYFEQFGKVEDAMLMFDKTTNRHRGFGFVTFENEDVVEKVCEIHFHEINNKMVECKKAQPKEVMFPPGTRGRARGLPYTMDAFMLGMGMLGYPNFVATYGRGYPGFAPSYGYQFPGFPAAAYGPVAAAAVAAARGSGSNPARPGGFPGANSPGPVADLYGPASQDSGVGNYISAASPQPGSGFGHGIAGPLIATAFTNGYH
UniProt P04792: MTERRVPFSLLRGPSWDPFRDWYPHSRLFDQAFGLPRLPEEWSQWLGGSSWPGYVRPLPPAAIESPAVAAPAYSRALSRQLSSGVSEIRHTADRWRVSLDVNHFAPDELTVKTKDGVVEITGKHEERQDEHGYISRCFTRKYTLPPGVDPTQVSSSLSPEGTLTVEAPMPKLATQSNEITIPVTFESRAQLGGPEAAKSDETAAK

Target: Musashi-2 (MSI2) (human (endogenous in SW620, LOVO, HEK293T)) (UniProt Q96DH6)
Assay: co-IP; cell lysate supernatants (SW620, LOVO, HEK293T) precipitated with 2 ug MSI2 antibody (Abcam ab76148) or control IgG for 8 h at 4 C, Protein A/G magnetic beads 6 h at 4 C, five washes with IP buffer, Western blot

binding: no binding
Substance: HSPB1 (from UniProt P04792 1-205)
